# Several values for one entry are separate records, joined by “and”; a condition that tells them apart may be missing. Identical values can stand only once. The shares of active, inactive and inconclusive entries below differ from those in the screen. A potency beside an inconclusive call is a rough fit, not a confirmed value. Activity calls are given as the source filed them. How the source made its calls: active means hit-call score of the fitted dose curve at least 0.9, where 1 is the maximum; inconclusive means response in the unintended direction; inactive means score below 0.9.
# Test system: turtle Androgen Receptor (AR), gene 101947425
# Assay: ATG_trAR_XSP2: Attagene TRANS-FACTORIAL Multi-Species (XSP2) HepG2 Assay for turtle Androgen Receptor (AR) (AID 2283815);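 on AC50: potency for gain of reporter signal meaning activation above DMSO baseline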
# Description: ATG_XSP2_multi-species_TRANS is a cell-based, multiplexed assay created by modifying the existing Attagene TRANS-FACTORIAL system to include a panel of nuclear receptors from some or all the following species: human (Homo sapiens), mouse (Mus musculus), frog (Xenopus laevis), zebrafish (Danio rerio), chicken (Gallus gallus), and turtle (Chrysemys picta). The […] format uses HepG2, a human liver cell line, with measurements taken at 24 hours after chemical dosing in a 24-well plate. Xsp2 included 3 nM 6-alpha-fluorotestosterone and 1.5 nM norgestrel to stimulate the androgen receptor.ATG_trAR_XSP2 is one of 29 assay components measured or calculated from the ATG_XSP2_multi-species_TRANS assay. It is designed to make measurements of mRNA induction, a form of inducible reporter, as detected with fluorescence intensity signals by Reverse transcription polymerase chain reaction (RT-PCR) and Capillary electrophoresis technology.The assay endpoint ATG_trAR_XSP2 was analyzed in the positive analysis fitting direction relative to DMSO as the negative control and baseline of activity. Using a type of inducible reporter, measures of mRNA for gain-of-signal activity can be used to understand the reporter gene at the transcription factor-level as they relate to the gene AR. Furthermore, this assay endpoint can be referred to as a primary readout, because this assay has produced multiple assay endpoints where this one serves a reporter gene function. To generalize the intended target to other relatable targets, this assay endpoint is annotated to the nuclear receptor intended target family, where the subfamily is steroidal.
# Human liver HepG2 cells are transiently transfected with multiple reporter transcription units (MRTUs) in 6-well plates using FuGene 6 reagent (Roche; 3 ml FuGene/1 mg DNA). The MRTU constructs are regulated by a cis-regulating element (promoter). […] A major difference between the CIS and TRANS system is that in CIS activities of endogenous TFs are measured, whereas the TRANS assay evaluates changes in activities of exogenous, chimeric NR-Gal4 proteins. […] At the end of 24 hour incubation, total RNA was isolated using TriZol reagent (Invitrogen). The isolated RNA is then reverse-transcribed using oligo(dT) primer and Mo-MLV reverse transcriptase (Invitrogen) with DNAse I (Ambion) treatment for 30 min. The one-tenth of the produced cDNA was amplified by PCR using Taq DNA polymerase (Invitrogen) and two reporter sequence-specific primers. The PCR products were fluorescently labeled by primer extension with 6-arboxyfluorescein (6-FAM) 5'-labeled reporter sequence-specific primer (2 min at 95 C, 20 s at 68 C and 10 min at 72 C) and these products were digested with 5U of HpaI (New England Biolabs) for 2h at 37 C. The fragments were purified using Qiaquick PCR columns (Qiagen), analyzed on an ABI 3130xL genetic analyzer (Applied Biosystems) with peak positions identified by using a set of X-rhodamine (ROX)-labeled MapMarker1000 molecular weight standards (BioVentures). The raw capillary electrophoresis data was processed using Attagraph software (Attagene).
SMILES,outcome,AC50
Oc1ccc2cc(SSc3ccc4cc(O)ccc4c3)ccc2c1,inactive,–
O=c1c(-c2ccc(O)cc2)coc2cc(O)cc(O)c12,inactive,inconclusive: 1000 nM
CC(=O)[C@@]1(O)CC[C@H]2[C@@H]3CCC4=CC(=O)CC[C@]4(C)[C@H]3CC[C@@]21C,–,inconclusive: 396 nM and inconclusive: 676 nM
CC(C)(C)c1ccc(S)cc1,inactive,inconclusive: 181000 nM
c1ccc2c(c1)ccc1ccccc12,–,inconclusive: 4.32 µM and inconclusive: 21.3 µM
CCCCC(CC)COC(=O)c1ccc(O)cc1 (configuration not stated),–,active: 53200 nM
CC(C)(c1cc(Br)c(O)c(Br)c1)c1cc(Br)c(O)c(Br)c1,–,inconclusive: 0.872 nM
BrCc1cccc(Oc2ccccc2)c1,–,inconclusive: 71.3 µM and inconclusive: 21.4 µM
O=C(Oc1ccccc1)c1ccc(O)cc1,inactive,–
C[C@]12CC[C@@H]3c4ccc(O)cc4CC[C@H]3[C@@H]1C[C@@H](O)[C@@H]2O,–,inconclusive: 176 nM
CN(CCOc1ccc(CC2SC(=O)NC2=O)cc1)c1ccccn1 (configuration not stated),–,inconclusive: 27.3 nM
CCCCC(CC)COC(=O)c1ccccc1C(=O)O (configuration not stated),–,inconclusive: 102000 nM
C#C[C@]1(O)CC[C@H]2[C@@H]3CCc4cc(O)ccc4[C@H]3CC[C@@]21C,–,inconclusive: 26.1 nM
CC/C(=C(/CC)c1ccc(O)cc1)c1ccc(O)cc1,–,inconclusive: 0.15 nM
CN(C)C(=N)N=C(N)N,inactive,–
CC/C(=C(\c1ccccc1)c1ccc(OCCN(C)C)cc1)c1ccccc1,–,inconclusive: 1420 nM
CC(=O)O[C@]1(C(C)=O)CC[C@H]2[C@@H]3C=C(Cl)C4=CC(=O)[C@@H]5C[C@@H]5[C@]4(C)[C@H]3CC[C@@]21C,–,inconclusive: 15.8 nM
Cc1oc(-c2ccccc2)nc1CCOc1ccc(C[C@H](Nc2ccccc2C(=O)c2ccccc2)C(=O)O)cc1,–,inconclusive: 17.9 nM
C[C@]12CC[C@@H]3c4ccc(O)cc4CC[C@H]3[C@@H]1CCC2=O,–,inconclusive: 25.1 nM
Oc1ccc(C(c2ccc(O)cc2)C(Cl)(Cl)Cl)cc1,–,inconclusive: 826 nM
